Source: PubChem BioAssay AID504793 (Drosophila RNAi Screening Center, 2011)

Aim: 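Knock-downs allowing continued mitosis even though DNA is damaged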 (primary screen)
Cells: Drosophila S2R+ cells
Reagents: long dsRNA against Drosophila genes, about 0.25 µg dsRNA per well
Time to read-out: 4 days of dsRNA, then 4 hours of drug before read-out
Challenge: doxorubicin 0.5 µM for 4 hours to cause double-strand breaks, in cells also given a low, harmless dose of dsRNA against nbs to sensitise the assay
Measured: 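Mitotic index as the number of phospho-histone H3-positive cells in each well following doxorubicin, given as raw counts without normalisation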
Reading the numbers: mitotic cells: higher = more cells in mitosis, weaker G2 arrest
Hit rule: 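Genes are called active only when high mitotic counts were reproduced with independent dsRNAs and mitosis was checked for delay without damage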
Meaning of the calls: active = confirmed in follow-up tests; inactive = not confirmed
The screen tested about 23,000 reagents; this is a random part of those that have a named target and a result. Over the whole deposit, 62 (0.27%) are marked active. 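Calls come from follow-up tests whose scores are not deposited, so confirmed genes may have low counts here; counts are not normalised per plate.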 Raw values vary from plate to plate and are shown uncorrected. Names joined by + are all predicted targets of the reagent. No sequences are given here.

| Target gene | dsRNA | mitotic cells, replicate 1 | mitotic cells, replicate 2 | Outcome |
| --- | --- | --- | --- | --- |
| CG33966 | DRSC08256 | 4 | – | inactive |
| CG33966 | DRSC25718 | 4 | – | inactive |
| p47 | DRSC06046 | 9 | – | inactive |
| CG10904 | DRSC04084 | 5 | – | inactive |
| Pex2 | DRSC10770 | 1 | – | inactive |
| CG42518 + MED9 | DRSC06917 | 7 | – | inactive |
| CG4619 | DRSC02764 | 3 | – | inactive |
| NC2alpha | DRSC04059 | 7 | – | inactive |
| NC2alpha | DRSC25348 | 5 | – | inactive |
| CG12061 | DRSC20715 | 4 | – | inactive |
| CG7519 | DRSC11834 | 9 | – | inactive |
| mus201 + Chrac-14 | DRSC03568 | 5 | – | inactive |
| mus201 + Chrac-14 | DRSC03575 | 3 | – | inactive |
| CG8419 | DRSC03087 | 1 | – | inactive |
| CG33013 (retired record) | DRSC06286 | 6 | – | inactive |
| CG33013 (retired record) | DRSC25681 | 9 | – | inactive |
| H2.0 | DRSC03340 | 11 | – | inactive |
| H2.0 | DRSC22555 | 10 | – | inactive |
| Sos | DRSC03439 | 8 | – | inactive |
| Sos | DRSC23624 | 9 | – | inactive |
| Sos | DRSC39141 | 6 | – | inactive |
| CG17744 | DRSC10286 | 8 | – | inactive |
| cbt | DRSC00655 | 5 | – | inactive |
| cbt | DRSC26117 | 5 | – | inactive |
| Ankle2 | DRSC20105 | 10 | – | inactive |
| Ankle2 | DRSC20106 | 6 | – | inactive |
| NijC | DRSC14851 | 9 | – | inactive |
| NijC | DRSC29054 | 7 | – | inactive |
| Roc1a | DRSC18483 | 10 | – | inactive |
| CG2915 | DRSC06842 | 9 | – | inactive |
| bif | DRSC18901 | 10 | – | inactive |
| bif | DRSC20313 | 15 | – | inactive |
| bif | DRSC28382 | 5 | – | inactive |
| eIF3d2 | DRSC15651 | 4 | – | inactive |
| Osi11 | DRSC12282 | 1 | – | inactive |
| bcd | DRSC12624 | 5 | – | inactive |
| bcd | DRSC25303 | 5 | – | inactive |
| CG12071 | DRSC22972 | 19 | – | inactive |
| Vinc | DRSC18728 | 9 | – | inactive |
| CG11380 | DRSC23223 | 15 | – | inactive |
| CG11380 | DRSC29190 | 4 | – | inactive |
| CG9777 | DRSC20208 | 11 | – | inactive |
| CG4882 | DRSC04495 | 7 | – | inactive |
| CG4882 | DRSC29963 | 12 | – | inactive |
| TwdlJ | DRSC15812 | 16 | – | inactive |
| mRRF1 | DRSC10421 | 6 | – | inactive |
| CG34176 | DRSC00435 | 2 | – | inactive |
| Vtld + CG42529 | DRSC10102 | 3 | – | inactive |
| CG31798 | DRSC01702 | 3 | – | inactive |
| CG31798 | DRSC27963 | 7 | – | inactive |
| H15 | DRSC03339 | 6 | – | inactive |
| H15 | DRSC22199 | 9 | – | inactive |
| H15 | DRSC25176 | 9 | – | inactive |
| CG9624 | DRSC16523 | 5 | – | inactive |
| CG14314 | DRSC14793 | 10 | – | inactive |
| CG10814 | DRSC06004 | 5 | – | inactive |
| CG12560 | DRSC02174 | – | – | inactive |
| cv-c | DRSC14969 | 7 | – | inactive |
| cv-c | DRSC14970 | 3 | – | inactive |
| cv-c | DRSC14972 | 5 | – | inactive |
| cv-c | DRSC16428 | 3 | – | inactive |
| cv-c | DRSC23199 | 9 | – | inactive |
| cv-c | DRSC23809 | 6 | – | inactive |
| cv-c | DRSC25812 | 10 | – | inactive |
| cv-c | DRSC27016 | 7 | – | inactive |
| CG2291 | DRSC06836 | 8 | – | inactive |
| rha | DRSC17044 | 6 | – | inactive |
| dob | DRSC19948 | 9 | – | inactive |
| CG5149 | DRSC02819 | 8 | – | inactive |
| CG5149 | DRSC27178 | 5 | – | inactive |
| Liprin-gamma | DRSC04093 | 6 | – | inactive |
| CG43740 | DRSC23267 | 1 | – | inactive |
| CG43163 | DRSC10745 | 7 | – | inactive |
| CG43163 | DRSC10748 | 3 | – | inactive |
| CG43163 | DRSC23670 | 4 | – | inactive |
| CG7218 | DRSC16216 | 3 | – | inactive |
| CG7218 | DRSC27550 | 4 | – | inactive |
| Snr1 | DRSC12369 | 13 | – | inactive |
| pot | DRSC19850 | 2 | – | inactive |
| pot | DRSC26969 | 5 | – | inactive |
| htt | DRSC16970 | 7 | – | inactive |
| CG7627 | DRSC03065 | 2 | – | inactive |
| CG7627 | DRSC24481 | 7 | – | inactive |
| CG7879 | DRSC08600 | 5 | – | inactive |
| CG7879 | DRSC25308 | 12 | – | inactive |
| Dtwd2 | DRSC12501 | 6 | – | inactive |
| CG16965 | DRSC02547 | 7 | – | inactive |
| GV1 | DRSC08228 | 5 | – | inactive |
| GV1 | DRSC25953 | 8 | – | inactive |
| Argk2 | DRSC10483 | 3 | – | inactive |
| Argk2 | DRSC23349 | 23 | – | inactive |
| Argk2 | DRSC28762 | 4 | – | inactive |
| CG3483 | DRSC04371 | 10 | – | inactive |
| beat-IIIc | DRSC02438 | 3 | – | inactive |
| beat-IIIc | DRSC02949 | 5 | – | inactive |
| Vap33 | DRSC18384 | 8 | – | inactive |
| CG33722 + CG18749 | DRSC12674 | 11 | – | inactive |
| CG33722 + CG18749 | DRSC15386 | 7 | – | inactive |
| CG33722 + CG18749 | DRSC28983 | 1 | – | inactive |
| Dro | DRSC07406 | 5 | – | inactive |
| Dro | DRSC39147 | 15 | – | inactive |
| sphe | DRSC20203 | 6 | – | inactive |
| Ref1 | DRSC12497 | 5 | 11 | inactive |
| Ref1 | DRSC22387 | 7 | – | inactive |
| rho-7 | DRSC07304 | 6 | – | inactive |
| CG13947 | DRSC00365 | – | – | inactive |
| CG13947 | DRSC25465 | 6 | – | inactive |
| CG32833 | DRSC04596 | 2 | – | inactive |
| Obp93a | DRSC15220 | 6 | – | inactive |
| Cpr64Ad | DRSC08284 | 7 | – | inactive |
| Cpr64Ad | DRSC25264 | 6 | – | inactive |
| Ir56c | DRSC06544 | 5 | – | inactive |
| Ir56c | DRSC26227 | 6 | – | inactive |
| Pstk + CG14210 + Tim9b | DRSC19566 | 6 | – | inactive |
| Pstk + CG14210 + Tim9b | DRSC29021 | 7 | – | inactive |
| m-cup | DRSC14430 | 3 | – | inactive |
| Nipped-A | DRSC04883 | 4 | – | inactive |
| Nipped-A | DRSC04884 | 4 | – | inactive |
| Nipped-A | DRSC07738 | 6 | – | inactive |
| Nipped-A | DRSC22386 | 5 | – | inactive |
| RanGAP | DRSC22003 | 11 | – | inactive |
| RanGAP | DRSC29400 | 5 | – | inactive |
| CG18284 | DRSC02661 | 4 | – | inactive |
| CG18284 | DRSC20756 | 7 | – | inactive |
| CG18284 | DRSC25271 | 2 | – | inactive |
| 5-HT1A | DRSC05030 | 3 | – | inactive |
| 5-HT1A | DRSC26404 | 5 | – | inactive |
| CG9393 | DRSC16486 | 9 | – | inactive |
| fliI | DRSC20578 | 9 | – | inactive |
| Ent3 | DRSC09822 | 7 | – | inactive |
| Ent3 | DRSC29706 | 6 | – | inactive |
| CG11843 | DRSC14401 | 5 | – | inactive |
| Art2 | DRSC00627 | 6 | – | inactive |
| FeCH | DRSC16948 | 7 | – | inactive |
| FeCH | DRSC27562 | 3 | – | inactive |
| Parg | DRSC18696 | 3 | – | inactive |
| CG11106 | DRSC19381 | 8 | – | inactive |
| CG12883 | DRSC14570 | 11 | – | inactive |
| CG12883 | DRSC27305 | 2 | – | inactive |
| CG33191 + Pif1B | DRSC12706 | 5 | – | inactive |
